Measurements reported in PubChem BioAssay AID743454 (Peter MacCallum Cancer Centre, 2014)
In all, the deposit lists about 18,000 reagents; below is a random part of them. In the full data, 450 (2.5%) are marked active. 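Single biological run; no consistent viability z cut-off exists, so the class columns, not z-scores, define the calls.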 The numbers tell different reagents against one gene apart. No sequences are given here.

Aim: 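Search for knock-downs that restore vorinostat killing in resistant colon cancer cells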 (primary screen)
Cells: human HCT116-VR colon cancer cells, selected for vorinostat resistance
Reagent: siRNA pool against human genes, 40 nM siRNA pool
Duration: vorinostat for 24 h, read-out about 72 h after transfection
Conditions: vorinostat at 2.5 µM final
Measurement: 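Two measures, CellTiter-Fluor viability and luminescent caspase 3/7 activity, each as fold change against same-plate mock wells, mean of duplicates, then screen-wide robust z-score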
Reading the numbers: viability robust z-score: higher = more viable cells than screen typical; caspase robust z-score: higher = more caspase 3/7 activity than screen typical
Active means: 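Hits are knock-downs in viability class RV1/RV2 or caspase class CA1/CA2, excluding ones that killed cells in the no-drug cell-count arm; hits then retested with single siRNAs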

gene,reagent no.,viability hit class,caspase hit class,viability robust z-score,caspase robust z-score,outcome
PSG3 (pregnancy specific beta-1-glycoprotein 3),1,no change,no change,0.92,0.11,inactive
ZNF610 (zinc finger protein 610),1,no change,no change,-0.6,1.42,inactive
KCNJ8 (potassium inwardly rectifying channel subfamily J member 8),1,no change,no change,0.64,0.16,inactive
DIP2A (DIP2 acetate--CoA ligase A),1,no change,no change,1.24,2.5,inactive
RPL36AL (ribosomal protein L36a like),1,no change,no change,-2.37,0.42,inactive
PIK3R5 (phosphoinositide-3-kinase regulatory subunit 5),1,no change,no change,-0.65,1.42,inactive
IFI44 (interferon induced protein 44),1,no change,no change,0.96,-0.1,inactive
LIMS3 (LIM zinc finger domain containing 3),1,no change,no change,1.1,0.26,inactive
CD302 (CD302 molecule),1,no change,no change,-1.73,-1.43,inactive
FABP7 (fatty acid binding protein 7),1,no change,no change,-0.25,1.34,inactive
BCDIN3D (BCDIN3 domain containing RNA methyltransferase),1,no change,no change,0.66,-0.08,inactive
PRAM1 (PML-RARA regulated adaptor molecule 1),1,no change,no change,-1.5,0.46,inactive
BAHCC1 (BAH domain and coiled-coil containing 1),1,no change,no change,-0.3,0.18,inactive
ANGPTL6 (angiopoietin like 6),1,no change,no change,0.38,-0.53,inactive
HTR1E (5-hydroxytryptamine receptor 1E),1,no change,no change,-0.36,3.86,inactive
ZNF20 (zinc finger protein 20),1,no change,no change,-0.44,-0.68,inactive
CEACAM19 (CEA cell adhesion molecule 19),1,no change,no change,-0.19,3.91,inactive
RNF175 (ring finger protein 175),1,no change,no change,0.16,-0.8,inactive
LAG3 (lymphocyte activating 3),1,no change,CA2 (caspase activation),-1.44,5.81,active
BICRAL (BICRA like chromatin remodeling complex associated protein),1,no change,no change,0.09,-0.5,inactive
OR1E2 (olfactory receptor family 1 subfamily E member 2),1,no change,no change,1.96,-0.45,inactive
"GFER (growth factor, augmenter of liver regeneration)",1,no change,no change,-1.75,0.37,inactive
PNLIPRP1 (pancreatic lipase related protein 1),1,no change,no change,0.32,-0.13,inactive
CUX1 (cut like homeobox 1),1,no change,no change,0.48,-0.2,inactive
IER3 (immediate early response 3),1,no change,no change,-0.82,-0.6,inactive
PGM1 (phosphoglucomutase 1),1,no change,no change,1.7,-0.68,inactive
LRRC36 (leucine rich repeat containing 36),1,no change,no change,-1.36,-1.56,inactive
USP3 (ubiquitin specific peptidase 3),1,no change,no change,0.19,-0.14,inactive
OR4B1 (olfactory receptor family 4 subfamily B member 1),1,no change,no change,1.01,-0.62,inactive
RTN4 (reticulon 4),1,no change,no change,-1.44,-0.11,inactive
HS1BP3 (HCLS1 binding protein 3),1,no change,no change,-0.01,-0.08,inactive
ARSI (arylsulfatase family member I),1,no change,no change,-0.58,1.15,inactive
SLC39A8,1,no change,no change,0.24,-0.3,inactive
SMARCA4,1,no change,no change,1.47,0.09,inactive
LRRC8C (leucine rich repeat containing 8 VRAC subunit C),1,no change,no change,0.92,-0.96,inactive
OR52A4P (olfactory receptor family 52 subfamily A member 4 pseudogene),1,no change,no change,0.18,-0.07,inactive
ARPC3 (actin related protein 2/3 complex subunit 3),1,no change,no change,0.05,-0.4,inactive
ERCC6L2 (ERCC excision repair 6 like 2),1,no change,no change,0.59,-0.57,inactive
ERCC6L2 (ERCC excision repair 6 like 2),2,no change,no change,-0.24,0.2,inactive
NEIL1 (nei like DNA glycosylase 1),1,no change,no change,-0.98,-1.05,inactive
RSPH9 (radial spoke head component 9),1,no change,no change,0.42,-0.31,inactive
PCSK7 (proprotein convertase subtilisin/kexin type 7),1,no change,no change,1.28,3.7,inactive
RGS19 (regulator of G protein signaling 19),1,no change,no change,0.23,-0.39,inactive
SLK (STE20 like kinase),1,no change,no change,0.67,-0.78,inactive
"SPTB (spectrin beta, erythrocytic)",1,no change,no change,0.96,-0.05,inactive
NDEL1 (nudE neurodevelopment protein 1 like 1),1,no change,no change,-0.91,2.87,inactive
DOHH (deoxyhypusine hydroxylase),1,no change,no change,0.11,-0.6,inactive
FBXO10 (F-box protein 10),1,no change,no change,-2.09,3.25,inactive
ATRNL1 (attractin like 1),1,no change,no change,-0.06,-0.6,inactive
BNIP2 (BCL2 interacting protein 2),1,no change,CA1 (caspase activation),0.8,6.72,active
RNF217 (ring finger protein 217),1,no change,no change,0.76,-0.26,inactive
SPATA18 (spermatogenesis associated 18),1,no change,no change,0.8,-0.58,inactive
CDR2 (cerebellar degeneration related protein 2),1,no change,no change,1.02,-0.18,inactive
SYNE4 (spectrin repeat containing nuclear envelope family member 4),1,no change,no change,-0.09,1.17,inactive
CLDN16 (claudin 16),1,no change,no change,-0.15,-0.64,inactive
MACROH2A2 (macroH2A.2 histone),1,no change,no change,-0.96,-0.4,inactive
MARCKSL1 (MARCKS like 1),1,no change,no change,0.12,-1.04,inactive

10 neighbouring records from above, for reference:
gene,reagent no.,viability hit class,caspase hit class,viability robust z-score,caspase robust z-score,outcome
PIK3R5 (phosphoinositide-3-kinase regulatory subunit 5),1,no change,no change,-0.65,1.42,inactive
IFI44 (interferon induced protein 44),1,no change,no change,0.96,-0.1,inactive
LIMS3 (LIM zinc finger domain containing 3),1,no change,no change,1.1,0.26,inactive
CD302 (CD302 molecule),1,no change,no change,-1.73,-1.43,inactive
FABP7 (fatty acid binding protein 7),1,no change,no change,-0.25,1.34,inactive
BCDIN3D (BCDIN3 domain containing RNA methyltransferase),1,no change,no change,0.66,-0.08,inactive
PRAM1 (PML-RARA regulated adaptor molecule 1),1,no change,no change,-1.5,0.46,inactive
BAHCC1 (BAH domain and coiled-coil containing 1),1,no change,no change,-0.3,0.18,inactive
ANGPTL6 (angiopoietin like 6),1,no change,no change,0.38,-0.53,inactive
HTR1E (5-hydroxytryptamine receptor 1E),1,no change,no change,-0.36,3.86,inactive
